Data: the supplement of paper PMC5949888
Most values lie at the floor of the assay. Slopes are relative: functional sequences can read slightly below zero.

tested on: Saccharomyces cerevisiae PS128 hsf1 delta, HSF1(1-493) fusion; test: growth estimate (transactivation domain function in HSF1 fusion, heat-shock survival) (a.u. (slope of normalised read count over time)); higher = stronger growth at 37°C, i.e. more transactivation activity; conditions: library: random library
Protocol: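 Random 60-nt DNA library encoding peptides of up to 20 aa, fused to the C-terminus of yeast HSF1 residues 1-493 (C-terminal TAD deleted) and expressed from the native HSF1 promoter on a CEN plasmid in hsf1-deleted S. cerevisiae PS128. Cells were selected at 37°C on -trp 5-FOA plates for 0, 2, 4, 6 and 8 days and amplicons were sequenced. Growth estimate is the slope of a robust linear fit of total-sum-normalised read counts (normalised to the first time point) over time, using at least 2 replicates. Sequences are classed functional (TAD activity) above a threshold of -0.13, set from stop-codon control sequences.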

Substance	growth estimate
GHFEAYTRSTRRRANSGR	-0.172
GHHLYQGCDRSTVQISILDK	< -0.25
GHHTPCGGLRQS	< -0.25
GHIKLTLRAGE	< -0.25
GHLGCSLGRVRHNVNGGEDP	< -0.25
GHLGLE	< -0.25
GHLLVKFGYCS	< -0.25
GHLWD	< -0.25
GHMSTSLVGRRGLRRL	< -0.25
GHNLVT	< -0.25
GHNQVSS	< -0.25
GHRGLSRSDRSLMAAKRQRT	< -0.25
GHRSPIGGIYTVPGHMSEKA	< -0.25
GHRTWQRRSSLRD	< -0.25
GHSGPKYDLL	< -0.25
GHSGYRPMHRSSHNISCVRL	< -0.25
GHSKDIQAPCVTTRLGVSSL	< -0.25
GHSLFRGGLPLMWKTTRGIC	< -0.25
GHTCPRATSSKANLWQKDGT	< -0.25
GHVCVLCMAIMRK	< -0.25
GHVFDRFV	-0.226
GHVKPLKLGAAKSSPSAGGR	< -0.25
GHVRLASCLPRQ	< -0.25
GHWGTEFERSVSPCFTCVSI	< -0.25

Substance	growth estimate
GHWMSKEQEIQFITHALSTS	< -0.25
GHYVPLNV	< -0.25
GIAMPMKRPGSLVEPTIGIH	< -0.25
GIASRTCQRLYRMINRCFAV	< -0.25
GICKHHGRAETHKH	< -0.25
GIEGTVCFVMGRSWSYFGSG	< -0.25
GIEPLSMLLCPY	< -0.25
GIFQSLDSYWRPIDFAGLRP	< -0.25
GIFRVYC	< -0.25
GIGDWMLAICTPAGSID	< -0.25
GIGHSLCHIALATFLRAFFQ	< -0.25
GIGKSGLDVGNRLVLRLVAR	< -0.25
GIGLSEIGKVICTSLHHFAV	< -0.25
GIGTHSSY	< -0.25
GIH	-0.224
GIHGLGAAIAPFKCLNDWET	< -0.25
GIHRRSAQWIFLL	< -0.25
GIHVQCLGDQCVITHDSQNF	< -0.25
GIIQGSLHNS	< -0.25
GIIRS	< -0.25
GIKASR	< -0.25
GIKQ	< -0.25
GILAREDIVLGSSV	< -0.25
GILDEALSIRVIRKNPK	< -0.25

Substance	growth estimate
GIMFGRHSGQFM	< -0.25
GIMQFSGGAPLGIPHT	< -0.25
GIMWFDKFERWLRELNLVG	-0.246
GINEPLIKEKC	< -0.25
GINTVEDALKYGGACGSMSV	< -0.25
GIPASQTPTRNKSRLNKSAA	< -0.25
GIPDTERQISPGLFTYAQTR	< -0.25
GIPGG	< -0.25
GIPSSSTDRTIRSI	< -0.25
GIQAGGTRKECSKYEHACYN	< -0.25
GIQELSQADRFLRGRQRDPG	< -0.25
GIQKSPTKCVPFRNE	< -0.25
GIRAWSDFTRGGVPDHIWRV	< -0.25
GIRTVPWIQCLKAVGI	< -0.25
GISD	< -0.25
GISEQLIGKTPANPRGRCRL	< -0.25
GISKSEPGVELIQVEDRHGP	< -0.25
GISNQGSSE	< -0.25
GISPLFDVSTAFVVL	< -0.25
GISVSLENRY	< -0.25
GISWYQARGR	-0.16
GITWAGISRHTFRGS	-0.238
GIVCPLAWSSRENELRRTQV	< -0.25
GIVGNTLIFERSHHSRERLQ	< -0.25

Substance	growth estimate
GIVLPGQSAPAPVEFGNVSL	< -0.25
GIVR	< -0.25
GIVREYLLRLKR	< -0.25
GKAASLVHKS	< -0.25
GKASNTIYKLALQPASRSQA	< -0.25
GKCPWESWGDCGGRKGCTIV	< -0.25
GKDRNTTRLCSACYRNVSPR	< -0.25
GKDRQGRMSHKKCFCGLIRI	< -0.25
GKGLLRTLIILVKVNFCPVT	< -0.25
GKGSSIEKR	< -0.25
GKGVMGRDGRTEVVRYVGAQ	< -0.25
GKGWKSLFNLPLEA	< -0.25
GKIFGASGERDSKTPKGAGS	-0.18
GKISCWRLCRDGMAYAGYHN	< -0.25
GKKEFEA	< -0.25
GKKTCRPEGN	< -0.25
GKLDAVGINKR	< -0.25
GKLGIIGYVRCITCFGAGGQ	< -0.25
GKLHTSVSDYKTNVPGGHQT	< -0.25
GKLSEGRVNKRRNEPYRSGP	< -0.25
GKLVPLINSVMLWTHRQNPG	< -0.25
GKNS	< -0.25
GKPKFTDI	< -0.25
GKPTSDISLDRGQVKPAART	< -0.25

Substance	growth estimate
GKQATGCL	< -0.25
GKQICVGRAYRSGTCPNPQG	< -0.25
GKRLNELFQMGFVQPVIEIC	< -0.25
GKSDRGRDPQDESAGGCPRP	< -0.25
GKSRTDSRAIQRGVATISRG	< -0.25
GKSSTIGALLLRI	< -0.25
GKSVRIKDLPASAATLQRSS	< -0.25
GKVLRRHR	< -0.25
GKVVAD	< -0.25
GLAHVHGVLSAGLQSVGVNQ	< -0.25
GLASKYPD	< -0.25
GLCCFCQFRQT	< -0.25
GLCCVV	< -0.25
GLCKRNIHYGLR	< -0.25
GLCPAMLNIDCR	< -0.25
GLDCFERISLGRCRVVFLLS	< -0.25
GLDEMA	< -0.25
GLDER	< -0.25
GLDQGAKEGIHHFHRG	< -0.25
GLEFSPFLLFEKI	< -0.25
GLEIRKA	< -0.25
GLEPGLSVKQRTRHGGGHFE	-0.246
GLERNPLKWLPDRFK	< -0.25
GLEVREERRSVEQRPWRMGK	< -0.25

Substance	growth estimate
GLFDYHEMRITAS	< -0.25
GLFYEGHLRTVKLLRFVRAN	< -0.25
GLGEQ	< -0.25
GLGERHR	< -0.25
GLGLTSTETGLAWHERE	< -0.25
GLGNRQF	-0.0161
GLGNVC	-0.25
GLGPPLPSTQWRERASRSAA	< -0.25
GLGQCDRVVL	< -0.25
GLGQGTTCGCPLSTCGSEA	< -0.25
GLGRLSVCGHGCYTWFLR	< -0.25
GLGRSPGEA	< -0.25
GLGYLRRGGMIAKPRPPWRL	< -0.25
GLHS	< -0.25
GLHW	< -0.25
GLIA	< -0.25
GLISYGIDIVRALSFDF	< -0.25
GLIVGYGAEVYSSTLVANGA	< -0.25
GLIVRRWTVSVVTHPWLLVG	< -0.25
GLLCPMVYRDTSRPGRDPCM	< -0.25
GLLFRLVAGLGKLRCYDTYV	< -0.25
GLLFV	< -0.25
GLLHFRG	< -0.25
GLLLGCLLQTPGSEGFLHDF	< -0.25

Part of the list above, with bars between the fields.
Substance | growth estimate
GISKSEPGVELIQVEDRHGP | < -0.25
GISPLFDVSTAFVVL | < -0.25
GKQICVGRAYRSGTCPNPQG | < -0.25
GLAHVHGVLSAGLQSVGVNQ | < -0.25
GLASKYPD | < -0.25
GLDCFERISLGRCRVVFLLS | < -0.25
GLGLTSTETGLAWHERE | < -0.25

More results follow:

Substance	growth estimate
GLLQQPSKTLG	< -0.25
GLLSRFCLRATVPTRSWRWA	< -0.25
GLN	< -0.25
GLNLNPCQALRFTRGRVVCT	< -0.25
GLNVHAWGSSNNRGGDR	< -0.25
GLPGRQEQRSGLLVFGSIAA	< -0.25
GLPSSTGIYRHWLAKHQPMI	< -0.25
GLQAW	< -0.25
GLQGRA	< -0.25
GLQHGRDIRTGETVN	< -0.25
GLQQGLMPYKKKR	< -0.25
GLRIGRGFRGDRACSRTAIP	< -0.25
GLRLGG	< -0.25
GLRMLSRPIER	< -0.25
GLRQFGAATERPGLACRGIS	< -0.25
GLRWRFSARDFRTFYM	< -0.25
GLRWTPWWAEIIACVSKGAF	< -0.25
GLSAECLWVT	< -0.25
GLSCSECGFSPGRLIWAGSM	< -0.25
GLSIACATLPW	< -0.25
GLSLHAVQGSSPGLKSRQKV	< -0.25
GLSPIPIKHTADNIPPDGTA	< -0.25
GLTAVCSNS	< -0.25
GLTCCCPSLMSVRAMVETQS	< -0.25

Quoted from the listing:
Under growth estimate, GLIVGYGAEVYSSTLVANGA is listed with < -0.25
Under growth estimate, GLFYEGHLRTVKLLRFVRAN is listed with < -0.25
Under growth estimate, GLN is listed with < -0.25
Under growth estimate, GIPASQTPTRNKSRLNKSAA is listed with < -0.25
Under growth estimate, GLDCFERISLGRCRVVFLLS is listed with < -0.25

Additional records.

Substance	growth estimate
GLTLDGFTVSSLKSRSSTS	< -0.25
GLTVLGRLTQTSSESLKRNT	< -0.25
GLTVRRRLYLRSHEGGLLPG	< -0.25
GLVGLACPALGGYVILSPRL	< -0.25
GLVGPLSMPGFAGTTAGHGE	< -0.25
GLVQTPFRPNWTGTGSLV	< -0.25
GLVRLMCRHVPVLWGVGNVL	< -0.25
GLVTANITYMPGGKLVSSHL	-0.245
GLVTSEVNGTAW	< -0.25
GLWCFA	-0.248
GLWLIGGCQNFVRRS	< -0.25
GLWNRRYPGLRNRIRQLEH	< -0.25
GLYAC	< -0.25
GLYGLPYFRRAIQTNRAGML	< -0.25
GLYI	< -0.25
GLYVDRLGQRAQPWNPGCVR	< -0.25
GMEHGSLRRFLRLRRISCDV	< -0.25
GMGHISVLEPIDTIYIISCH	< -0.25
GMGKDERLWGTSDLLL	< -0.25
GMKVSVLRVGAGKLSSLMKS	< -0.25
GMLD	< -0.25
GMMLTSEAARAVRCASWTCR	< -0.25
